The record followed here is paper PMC4686657.

The chains behind the UniProt entries cited, without tags or fusion partners. Where a name states a change or a piece, a line headed by the entry shows the natural chain unless it says otherwise.
UniProt O35261: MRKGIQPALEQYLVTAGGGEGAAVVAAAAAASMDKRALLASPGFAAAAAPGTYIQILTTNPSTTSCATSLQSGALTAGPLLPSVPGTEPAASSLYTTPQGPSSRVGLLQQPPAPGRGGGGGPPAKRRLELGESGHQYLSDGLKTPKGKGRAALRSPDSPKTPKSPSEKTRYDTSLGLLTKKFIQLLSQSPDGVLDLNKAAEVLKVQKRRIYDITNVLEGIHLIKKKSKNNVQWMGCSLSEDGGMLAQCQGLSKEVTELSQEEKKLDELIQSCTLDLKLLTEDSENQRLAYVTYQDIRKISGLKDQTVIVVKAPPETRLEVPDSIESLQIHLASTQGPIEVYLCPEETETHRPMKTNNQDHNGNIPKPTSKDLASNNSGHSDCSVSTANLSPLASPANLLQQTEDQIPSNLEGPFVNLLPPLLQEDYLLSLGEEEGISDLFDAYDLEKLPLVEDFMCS
UniProt Q61501: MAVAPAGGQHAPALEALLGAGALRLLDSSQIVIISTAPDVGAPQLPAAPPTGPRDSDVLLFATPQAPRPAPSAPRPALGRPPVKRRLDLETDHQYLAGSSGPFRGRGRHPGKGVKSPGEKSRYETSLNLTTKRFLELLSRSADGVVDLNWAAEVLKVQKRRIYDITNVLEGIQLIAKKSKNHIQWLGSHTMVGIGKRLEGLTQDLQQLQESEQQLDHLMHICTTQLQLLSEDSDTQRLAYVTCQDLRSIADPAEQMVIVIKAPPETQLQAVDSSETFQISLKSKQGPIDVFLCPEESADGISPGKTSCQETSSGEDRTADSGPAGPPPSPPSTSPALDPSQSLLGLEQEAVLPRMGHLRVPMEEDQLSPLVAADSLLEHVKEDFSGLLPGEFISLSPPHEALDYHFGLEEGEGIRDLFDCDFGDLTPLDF

Construct, isoform or probe ends are uncertain for at least one entry. Where cells or extracts were used, other partners may take part. A weaker result is weaker than the reference pair of the same experiment. At least one verdict was read from the data and is not stated in words by the source.

For data set [1], the target named is E2f3 (endogenous, TKO HCC nuclear extract) (Mus musculus (TKO HCC cells)) (UniProt O35261). Briefly: EMSA. The conditions noted are these: EMSA: 20 mM HEPES, 10 mM KCl, 0.2 mM EDTA, 10% glycerol, 5 mM DTT (7 ul Binding Buffer D in 20 ul), 50 ng poly dI:dC, 0.15% NP-40, 1 ug BSA, 5 ug nuclear extract, protein in an extract, label: biotin.
In data set [2] the target is E2f1 (endogenous, TKO HCC nuclear extract) (Mus musculus (TKO HCC cells)) (UniProt Q61501). Description: EMSA. The settings on record: EMSA: 20 mM HEPES, 10 mM KCl, 0.2 mM EDTA, 10% glycerol, 5 mM DTT (7 ul Binding Buffer D in 20 ul), 50 ng poly dI:dC, 0.15% NP-40, 1 ug BSA, 5 ug nuclear extract, protein in an extract, label: biotin. A general note: A gel shift assay detects complexes by their altered migration in electrophoresis.

The mark [3] stands for this setting: less intense than early consensus.

As to “CAGGCGACAGCGGCGCGGAACGCAG (double strand) [Pfkl probe]”, the binding result in data set [1] (setting [3]) and in data set [2] (setting [3]) was “binds more weakly” each time.

Turning to “CAGGCTTTTTCGGCGCGGAACGCAG (double strand) [Pfkl T-stretch probe]”, the binding result in data set [1] (similar to early consensus) and in data set [2] (similar to early consensus) was “binds” each time.
